Laboratory results reported in patent US20110212890A1, “METASTIN DERIVATIVE AND USE THEREOF” (Takeda Pharmaceutical Company Limited, priority 2008, published 2011).
Some results were stated once for a whole list of compounds, not compound by compound.

Legend:
male Crl: CD (SD) rats [1] = experiment: LH release action in male rat (plasma LH by radioimmunoassay); format: in vivo; settings: subcutaneous to the dorsum, 1, 10 or 100 nmol/kg, AUC from 0 hour to 4 hours after the administration, vs control group
Method: (§1) For male Crl: CD (SD) rats (8 or 10 weeks old), compounds 1 (10 weeks old), 3, 8, 9, 10 and 11 (8 weeks old) (1, 10 or 100 nmol/kg), and metastin (45-54) (PEPTIDE INSTITUTE, INC., 10 or 100 nmol/kg), which were dissolved in physiological saline, were administered subcutaneously to the dorsum. For the control group, a physiological saline was administered subcutaneously to the dorsum. About 0.4 mL of the blood was collected from the tail vein before the administration (0 hour) and after 0.5, 1, 2, 4 hours of the administration of compounds 1, 3, 8, 9, 10 and 11, and metastin (45-54), or physiological saline. The collected blood was well mixed with 12 μL of 10 w/v % EDTA.2Na-containing trasylol solution (Bayer AG), and then separated by centrifugation at 12,000 rpm for 10 minutes, and the supernatant was recovered as the plasma sample. The concentrations of luteinizing hormone (LH) and total testosterone in the plasma were measured with radioimmunoassay (rat LH RIA Immuno-reagent set, National Hormone and Peptide Program, available from Dr. A. F. Parlow, The National Institute of Diabetes and Digestive and Kidney Diseases, and DPC Total Testosterone Kit, Mitsubishi Chemical Formula Iatron, Inc.).

male Crl: CD (SD) rats [2] = experiment: Testosterone release action in male rat (plasma total testosterone by radioimmunoassay); format: in vivo; settings: subcutaneous to the dorsum, 1, 10 or 100 nmol/kg, AUC from 0 hour to 4 hours after the administration, vs control group
Method: as §1

Row | Substance | dose showing (significant) increase in the LH concentration in the plasma (AUC) (male Crl: CD (SD) rats [1]) [nmol/kg] | dose showing (significant) increase in the total testosterone concentration in the plasma (AUC) (male Crl: CD (SD) rats [2]) [nmol/kg]
1 | PEG20K(CS)-CO-Acp-D-Tyr-D-Trp-Asn-Thr-Phe-AzaGly-Leu-Arg(Me)-Trp-NH2 [compound 8] | ≥ 1 | ≥ 1
2 | PEG5K(CS)-CO-Acp-Tyr-Asn-Trp-Asn-Ser-Phe-Gly-Leu-Arg-Phe-NH2 (YNWNSFGLRF; PEG5K(CS)-CO-Acp N-term, C-terminal amide; printed: Tyr-Asn-Trp-Asn-Ser-Phe-Gly-Leu-Arg-Phe-) [compound 1] | ≥ 10 | ≥ 10
3 | PEG20K(CS)-CO-Acp-D-Tyr-Glu-Asn-Thr-Phe(3F)-AzaGly-Leu-Arg(Me)-Trp-NH2 [compound 10] | ≥ 1 | ≥ 1
4 | PEG20K(CS)-CO-Acp-D-Tyr-Hyp-Asn-Thr-Phe(4F)-AzaGly-Leu-Arg(Me)-Trp-NH2 [compound 11] | ≥ 1 | ≥ 1
5 | PEG20K(CS)-CO-Acp-D-Tyr-Hyp-Asn-Thr-Phe-AzaGly-Leu-Arg(Me)-Trp-NH2 [compound 9] | ≥ 1 | ≥ 1
